Data: PubChem BioAssay AID1347076 (National Center for Advancing Translational Sciences (NCATS), 2019)
The whole screen tested about 400,000 compounds, of which about 13,000 (3.2%) were called active. Inconclusive means that the source gave no clear call. Such entries were picked first, then a sample of the others. The call rests on the fitted dose curve; in most records, active means well fitted cell-killing curve with a large enough effect; inconclusive means small, poorly fitted or top-dose-only effect, or effect the other way; inactive means flat fitted curve, though single readings scatter. Where the call is inconclusive, the potency comes from a doubtful curve fit.

Assay: qHTS assay for MDR1-selective chemotherapeutics: Primary screen using the drug-selected MDR subline cells KB-V1; further: nearly all actives have a fitted effect of over 60% in size
Details: KB-V1 MDR cells viability, CellTiter-Glo, 72 h; series mostly up to 46.1 µM
How it was run: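 KB-V1, DMEM (no phenol red) + 10% FBS; cpd pin-transferred, titration series; 72 h, 37 degrees C; CellTiter-Glo, luminescence. Data normalized, curve-fit.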
Potency means the concentration at half of the fitted maximal effect.

SMILES	Potency
COc1ccc(-c2cc(-c3ccccc3)nc3c2COc2ccc(Cl)cc2-3)cc1	inconclusive: 7.31 µM [rising, partial curve, poor fit]
COc1cccc(N/C(SC)=C(/C#N)C(N)=O)c1	inconclusive: 25.9 µM [cytotoxic, single point]
CS(=O)(=O)N1CCC(C(=O)Nc2ccc(F)c(Cl)c2)CC1	inconclusive: 29.1 µM [rising, single point]
CCOC(=O)c1cnc(Nc2nc3ccccc3o2)nc1CSc1nnc(C)s1	inconclusive: 10.3 µM [cytotoxic, partial curve, poor fit]
CCCCCCNCc1ccc(Br)cc1	inconclusive: 23.1 µM [cytotoxic, partial curve]
COC(=O)c1ccc(NS(=O)(=O)c2ccc3[nH]c4c(c3c2)CCCCC4)cc1	active: 23.1 µM
CCN(CC)c1ccc(/C=N/N2CC(=O)NC2=S)cc1	inactive
C1=CC2=NC34CCCCC3CC3=C(CCCC3)N4C2=CC1=NC1CCCCC1 (stereo unspecified)	inactive
CCN1C(=O)C(O)(c2c(C)[nH]c3ccccc23)c2ccccc21 (stereo unspecified)	inconclusive: 13 µM [rising, partial curve, poor fit]
Cc1noc(C)c1COc1ccccc1C(=O)N(C)Cc1ccco1	inactive
CCOc1ccc(CN2CCN(CCCc3ccccc3)CC2CCO)cc1 (stereo unspecified)	inactive
Cc1nnsc1-c1onc(C)c1C(=O)Nc1cc(Cl)cc(Cl)c1	active: 16.4 µM
c1ccc(-c2nc(NC3CCCC3)c3ccccc3n2)cc1	inconclusive: 20.6 µM [cytotoxic, partial curve]
CC(C)Oc1ccc(S(=O)(=O)N2CCOCC2)cc1NC(=O)CN1C(=O)NC2(CCCC2)C1=O	inactive
C=C1N(c2cccc(Cl)c2)C(=O)OC1(C)C	inconclusive: 13 µM [rising, partial curve, poor fit]
CC(C)CCOP(=O)(c1ccccc1)c1ccccc1	inconclusive: 11.6 µM [cytotoxic, partial curve, poor fit]
CCCCNC(=O)c1sc2nc(C)cc(COC)c2c1-n1cccc1	active: 5.17 µM
O=C(N/N=C/c1cc(Cl)cc([N+](=O)[O-])c1O)c1cccc(S(=O)(=O)N2CCOCC2)c1	inconclusive: 20.6 µM [cytotoxic, single point]
COC(=O)c1ccc(OC)c(CN2CCCN(Cc3cc(C)ccc3C)S2(=O)=O)c1	inactive
Cc1c(C(=O)N(C)Cc2ccc(F)cc2)sc(=O)n1Cc1ccccc1C#N	inconclusive: 9.2 µM [cytotoxic, partial curve]
Cc1cccc(C)c1NC(=O)C(c1ccccc1)N1CCN(C/C=C/c2ccccc2)CC1 (stereo unspecified)	inconclusive: 29.1 µM [cytotoxic, single point]
CC/C(=N\NC(=O)c1cc(C)oc1C)c1ccc(OC(F)F)cc1	inconclusive: 23.1 µM [cytotoxic, partial curve, poor fit]
CN(Cc1ccccc1)C(=O)NC1CCCCC1	inconclusive: 16.4 µM [cytotoxic, single point]
Cc1ccc(Cn2c(C)c(CNC3CCCCC3)c(C(=O)O)c2C)cc1	inconclusive: 16.4 µM [rising, partial curve, poor fit]

SMILES	Potency
Cc1ccc(C(=O)Nc2ccncc2)cc1S(=O)(=O)N1CCCCC1	active: 14.6 µM
CC1CCC2(CC1)NC(=O)N(CC(=O)Nc1ccc3c(c1)OCCCO3)C2=O (stereo unspecified)	inconclusive: 16.4 µM [rising, single point]
COc1cccc(-n2nnnc2SCC(=O)NC2CCCC2)c1	active: 20.6 µM
COc1ccc(C(=O)N/C(=C\c2ccccc2)C(=O)Nc2ccccc2C(=O)O)cc1	inactive
COC(=O)c1ccc(NC(=O)c2nn(C)c3c2CS(=O)(=O)c2ccccc2-3)cc1	inactive
CCOC(=O)c1cc2c(=O)n3ccccc3nc2n(Cc2ccco2)c1=NC(=O)c1cc(C)cc(C)c1	inactive
COc1ccc(CCNc2nc3c(c(=O)n(C)c(=O)n3C)n2Cc2ccc(F)cc2)cc1OC	active: 2.06 µM
CCOc1ccc(NC(=O)CSc2nc(C3CC3)nc3ccccc23)cc1	inactive
CN(C(=O)COc1ccccc1C(=O)NCCOc1ccccc1)c1ccccc1	active: 8.2 µM
CCn1cc(C(=O)Nc2ccccc2C(=O)OC)cn1	inactive
COc1ccc(/C=N/NC(=O)c2cc(OC)c(OC)c(OC)c2)cc1CN1CCc2cc(OC)c(OC)cc2C1C (stereo unspecified)	inconclusive: 29.1 µM [cytotoxic, single point]
COc1cccc(S(=O)(=O)N(C)C[C@@H]2Oc3cc(Br)ccc3S(=O)(=O)N([C@@H](C)CO)C[C@@H]2C)c1	inconclusive: 8.2 µM [cytotoxic, partial curve, poor fit]
Cc1cccc(-c2cc3c(nn2)-c2ccccc2C3=O)c1	inactive
COCCN(Cc1cc2cccc(C)c2[nH]c1=O)C(=O)c1ccccc1	inconclusive: 32.6 µM [cytotoxic, single point]
COc1cccc(N2C(=O)CSC23C(=O)N(CC(=O)Nc2cc(C)ccc2C)c2ccccc23)c1 (stereo unspecified)	inactive
O=C1C=CC(c2c[nH]c3ccccc23)CC1 (stereo unspecified)	inactive
Cc1ccc(C(=O)OCc2nnc(-c3ccccc3)o2)s1	inconclusive: 16.4 µM [rising, partial curve, poor fit]
C/C(=N\Nc1cc(N2CCCCC2)nc(C)n1)c1ccc(Br)cc1	inconclusive: 29.1 µM [cytotoxic, single point]
COc1ccc2[nH]cc(CCNC(=O)Nc3ccccc3C)c2c1	inconclusive: 18.4 µM [rising, single point]
CCSc1nnc(NC(=O)c2nc(-c3ccccc3)n(-c3ccccc3)n2)s1	inconclusive: 9.2 µM [cytotoxic, partial curve]
CCc1ccc(C(=O)CC2(O)C(=O)N(CN3CCOCC3)c3ccccc32)cc1 (stereo unspecified)	inconclusive: 14.6 µM [rising, partial curve, poor fit]
Cc1cc(-c2ccco2)n(CC(=O)O)n1	inactive
C/C(=N\NC(=O)COc1ccc(C)cc1Br)c1cc([N+](=O)[O-])cs1	inconclusive: 8.2 µM [cytotoxic, partial curve, poor fit]
Cc1cccc(N2C(=O)CC(SC(=Nc3ccccc3)Nc3ccccc3)C2=O)c1 (stereo unspecified)	active: 18.4 µM

No new results follow: an excerpt of the list.
SMILES	Potency
COC(=O)c1ccc(OC)c(CN2CCCN(Cc3cc(C)ccc3C)S2(=O)=O)c1	inactive
Cc1c(C(=O)N(C)Cc2ccc(F)cc2)sc(=O)n1Cc1ccccc1C#N	inconclusive: 9.2 µM [cytotoxic, partial curve]
Cc1cccc(C)c1NC(=O)C(c1ccccc1)N1CCN(C/C=C/c2ccccc2)CC1 (stereo unspecified)	inconclusive: 29.1 µM [cytotoxic, single point]

Later entries

SMILES	Potency
Cc1ccc(Cl)cc1N1CCN(C(=O)Cc2csc(Nc3nc(=S)[nH]c4ccccc34)n2)CC1	inconclusive: 7.31 µM [cytotoxic, partial curve]
COc1ccc(C(=O)C(=O)N2CCC(c3ccccc3)CC2)cn1	inconclusive: 20.6 µM [cytotoxic, partial curve, poor fit]
Cc1cc(C)c(NC(=O)c2sc3nc(C)cc(C)c3c2N)c(C)c1	inconclusive: 10.3 µM [cytotoxic, partial curve]
COc1ccc(C)cc1NC(=O)CN1CCN(CC(=O)Nc2ccccc2F)CC1	inconclusive: 0.92 µM [cytotoxic, full curve, poor fit]
COCCn1c(-c2ccccc2)nc(=S)c2c1CC(C)(C)OC2	inconclusive: 13 µM [rising, partial curve]
O=C(Nc1ccc2c(c1)OCO2)c1cc(C2CCCCN2S(=O)(=O)c2ccccc2)on1 (stereo unspecified)	inactive
COc1ccc2oc(-c3ccccc3)c(C(=O)N3CCOCC3)c2c1	inconclusive: 16.4 µM [cytotoxic, single point]
Cc1ccc(S(=O)(=O)N2CC3(O)CN(C(=O)OC(C)C)N(C(=O)OC(C)C)CC3(OC(=O)NCc3ccccc3)C2)cc1 (stereo unspecified)	inactive
COC(C(=O)Nc1ccnn1C1CCN(Cc2ccc(C)s2)CC1)c1ccccc1 (stereo unspecified)	inactive
CCOC(=O)C1CCCN(C(=O)CCCn2nnnc2CN2CCC(C)CC2)C1 (stereo unspecified)	inactive
CC(=O)Oc1ccc(C(=O)O)c(OC(C)=O)c1	inconclusive: 9.2 µM [rising, partial curve, poor fit]
Cn1nnnc1SCC(=O)Nc1ccccc1Br	inconclusive: 0.206 µM [rising, full curve, poor fit]
O=C(CN1CCN(C2CCCCC2)CC1)c1ccc2cc[nH]c2c1	inconclusive: 3.26 µM [cytotoxic, full curve]
Cc1cccc(NS(=O)(=O)c2ccc(C(=O)N3CCCCCC3)cc2)c1C	inconclusive: 7.31 µM [cytotoxic, partial curve, poor fit]
Cc1csc(Sc2ccc(S(=O)(=O)N3CCCC3)cn2)n1	inconclusive: 20.6 µM [cytotoxic, single point]
COc1cccc(NC(=O)C2CCN(C(=O)[C@@H]3Cc4ccccc4CN3)CC2)c1	inactive
CCOC(=O)C1CCCN(CCC(=O)Nc2ccc(OC)cc2OC)C1 (stereo unspecified)	inactive
CCN(CC)C(=O)Nc1ccccc1C	inconclusive: 29.1 µM [rising, single point]
CCOC(=O)[C@H]1[C@H]2COc3ccc(Br)cc3[C@@H]2N2C(=O)CN(Cc3ccc(C)cc3)C(=O)[C@@]12C	inconclusive: 18.4 µM [cytotoxic, single point]
O=C(O)c1ccc(CNS(=O)(=O)c2ccc(Oc3ccccc3Cl)cc2)cc1	inactive
CCn1cc(C(=O)OCC(=O)c2cc(C)n(-c3cccc(C(F)(F)F)c3)c2C)c(=O)c2ccc(C)nc21	active: 23.1 µM
CCOC(=O)c1cc(-c2ccccc2)sc1N	inconclusive: 29.1 µM [rising, single point]
O=[N+]([O-])c1cccc(CP(=O)(c2ccccc2)c2ccccc2)c1	active: 20.6 µM

Arranged by length of the SMILES (ascending): part of the list above
SMILES	Potency
CCOc1ccc(NC(=O)CSc2nc(C3CC3)nc3ccccc23)cc1	inactive
O=[N+]([O-])c1cccc(CP(=O)(c2ccccc2)c2ccccc2)c1	active: 20.6 µM
CCOC(=O)[C@H]1[C@H]2COc3ccc(Br)cc3[C@@H]2N2C(=O)CN(Cc3ccc(C)cc3)C(=O)[C@@]12C	inconclusive: 18.4 µM [cytotoxic, single point]
